According to patent US20160046678A1 (ZYNGENIA, published 2016):
These are yes or no findings as the source states them, for the method shown. Some binding calls cover weakened binding; strength is not graded here.

By UniProt entry, the sequences of proteins in these tests, tags left out. Residues count along the entry.
UniProt P08069, residues 31-932: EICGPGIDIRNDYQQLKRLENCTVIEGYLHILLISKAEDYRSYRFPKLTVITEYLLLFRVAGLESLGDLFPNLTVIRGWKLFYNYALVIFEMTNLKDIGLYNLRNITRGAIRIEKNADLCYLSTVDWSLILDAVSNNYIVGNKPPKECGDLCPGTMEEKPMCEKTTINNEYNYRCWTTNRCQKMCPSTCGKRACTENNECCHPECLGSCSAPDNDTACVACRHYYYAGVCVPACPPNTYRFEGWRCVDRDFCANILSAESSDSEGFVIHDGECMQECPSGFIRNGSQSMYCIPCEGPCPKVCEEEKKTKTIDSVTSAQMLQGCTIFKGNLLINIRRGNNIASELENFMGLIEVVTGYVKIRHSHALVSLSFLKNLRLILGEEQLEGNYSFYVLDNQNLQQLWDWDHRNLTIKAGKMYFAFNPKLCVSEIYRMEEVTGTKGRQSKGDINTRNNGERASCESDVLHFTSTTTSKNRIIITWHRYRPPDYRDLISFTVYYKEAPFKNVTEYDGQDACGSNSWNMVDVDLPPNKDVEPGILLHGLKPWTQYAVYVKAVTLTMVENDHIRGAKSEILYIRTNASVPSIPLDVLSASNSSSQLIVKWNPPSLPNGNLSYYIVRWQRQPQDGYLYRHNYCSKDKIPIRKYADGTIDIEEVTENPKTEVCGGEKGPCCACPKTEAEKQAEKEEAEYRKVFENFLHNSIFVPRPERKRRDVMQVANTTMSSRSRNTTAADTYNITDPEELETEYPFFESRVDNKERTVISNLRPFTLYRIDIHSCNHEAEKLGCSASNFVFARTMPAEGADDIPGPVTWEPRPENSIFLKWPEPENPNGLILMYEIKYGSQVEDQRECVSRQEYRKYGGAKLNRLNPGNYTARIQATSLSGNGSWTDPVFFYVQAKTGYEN

B1: EGB334 (peptide)
peptide: MVVPCFTSQRQMAPACIAPRGQAGQGGPGCGRWLPRQRCFIKHGHMSESCMVSA

Each binder was assayed against ErbB2 (UniProt P04626) (assay: MRD identification, Example 48).

binding, binds:
WDHWHIWHFG [EGB125], TCHPSWGGKTCT [EGB104], PCVFVIEGCF [EGB132], HTRKCHKFMFQHKHCIEVL [EGB315], B1, RWVHCKQHGHYFSQRCIETW [EGB289], GSLGCVLPMVFCRSYQ [EGB249], QGGGCRGPHWYQMFYCVSPS [EGB222], ICVAMTVTCS [EGB106], MPWEYLHQHQ [EGB130], PPYRCIPSESWICSFILGQA [EGB221], LVSFCPWGPDWYCSHYH [EGB224], WCHLFPYSQWCH [EGB122], YGKVLCSKWQCCKLLR [EGB263], ICSRWPYWPHCWGQARQAAGGGSNCSHEPGSVVCL [EGB133], FCIHFPHSWVCH [EGB117], WCRYYSVVCS [EGB134], LCFAHQQAMFCN [EGB98], PRRWCHMDFHHSPMCHWHL [EGB310], WCHFQIWHHPCY [EGB128], FCQFFPWTMVCQ [EGB129], FCHLCQMFPAWCFLQT [EGB264], HCNWAPWWGYCMGQAGQGRCTAGGGSHCYWPPPNTRCW [EGB131], SVFDCKYAPMWYCKHYL [EGB227], ICKYFPFSHFCW [EGB123], PPRWWCEHYGVQDLMCPGLF [EGB225], ICWIGTFGCA [EGB137], LCETQPVSFSCSGQACPGGGGGSLCQFWPHIDFCV [EGB127]

Each binder was assayed against IGF1R (UniProt P08069) (assay: MRD identification, Example 48).

binding, binds:
WYVDPPLCFEFPELCF [IGF520], FYEWFQAQLT [IGF512], MRVESLQLCKEFPELCFFSHGWT [IGF524], GPMEVHDLCKEFSELCF [IGF532], KTSQDMLCWEFEELCF [IGF516], PGLEIPQLCKEFPELCFTMDDDF [IGF522], GFYEWFEMQL [IGF511], QSLDIPGLCKEFPELCFEMTGMR [IGF534], RLTPQDLCFEFSELCF [IGF526], LCAEFAELCFEDTVRY [IGF521], LCAEFRELCFHLPAQA [IGF523], YLSPDDMCYEFPELCF [IGF515], GFYEWFEMQM [IGF514], LSSYDVLCQEFSELCF [IGF527], LRPESIALCKEFPELCFEGWKSA [IGF533], LVSPEDLCQEFVELCF [IGF519], LTSWELLCFEFEELCF [IGF518], QTTPHILCLEFPELCF [IGF517]
